# Experimental data as given in paper doi:10.1101/750596.
# No constants are given. Whether binding was seen depends on the method and setting. For part of these data: In cells and extracts the contact can be indirect. For part of these data: Binding calls can cover weak binding; strength is not graded here.
# Assays:
# [1] = target: CNTD1^FH (C-terminally FLAG-HA tagged CNTD1 short form from the Cntd1^FH knock-in allele) (mouse (endogenous in testis)); assay: co-IP
# [2] = target: CNTD1 short form, yeast two-hybrid bait (mouse); assay: two-hybrid
binder,measurement,setting,value
"CDC34 (E2 conjugating enzyme) (enzyme, UniProt Q8CFI2 1-235) MARPLVPSSQKALLLELKGLQEEPVEGFRVTLVDEGDLYNWEVAIFGPPNTYYEGGYFKARLKFPIDYPYSPPAFRFLTKMWHPNIYETGDVCISILHPPVDDPQSGELPSERWNPTQNVRTILLSVISLLNEPNTFSPANVDASVMYRKWKESKGKDREYTDIIRKQVLGTKVDAERDGVKVPTTLAEYCVKTKAPAPDEGSDLFYDDYYEDGEVEEADSCFGDEEDDSGTEES",binding,[1],binds
"CDK4, yeast two-hybrid prey (enzyme, UniProt P30285 1-303) MAATRYEPVAEIGVGAYGTVYKARDPHSGHFVALKSVRVPNGGAAGGGLPVSTVREVALLRRLEAFEHPNVVRLMDVCATSRTDRDIKVTLVFEHIDQDLRTYLDKAPPPGLPVETIKDLMRQFLSGLDFLHANCIVHRDLKPENILVTSNGTVKLADFGLARIYSYQMALTPVVVTLWYRAPEVLLQSTYATPVDMWSVGCIFAEMFRRKPLFCGNSEADQLGKIFDLIGLPPEDDWPREVSLPRGAFAPRGPRPVQSVVPEMEESGAQLLLEMLTFNPHKRISAFRALQHSYLHKEESDAE",binding,[2],no binding
"CDK4 (endogenous, mouse testis) (enzyme, UniProt P30285 1-303) MAATRYEPVAEIGVGAYGTVYKARDPHSGHFVALKSVRVPNGGAAGGGLPVSTVREVALLRRLEAFEHPNVVRLMDVCATSRTDRDIKVTLVFEHIDQDLRTYLDKAPPPGLPVETIKDLMRQFLSGLDFLHANCIVHRDLKPENILVTSNGTVKLADFGLARIYSYQMALTPVVVTLWYRAPEVLLQSTYATPVDMWSVGCIFAEMFRRKPLFCGNSEADQLGKIFDLIGLPPEDDWPREVSLPRGAFAPRGPRPVQSVVPEMEESGAQLLLEMLTFNPHKRISAFRALQHSYLHKEESDAE",binding,[1],no binding
